This is an account of results in patent US5470948 (dated 1995).

Strings that start with PEPTIDE1 are HELM notation: dots part the residues, brackets hold end groups and non-standard residues.

The series in a line: general procedure: Boc solid-phase peptide synthesis; Merrifield resin (<MF>). To be noted: for crude mass / crude yield: whole synthesis; for crude yield: relative to heptapeptide resin used, scale of the general procedure 0.8 g (about 0.4 mmol) heptapeptide resin; for oxidative folding yield: oxidative folding step, relative to fully protected nonapeptide amide.

“Mca(Bzl)-DTyr(Et)-Phe-Gln-Asn-Cys(Bzl)-Sar-Arg(Tos)-Gly-NH2” registered a crude mass of 0.35 g and a crude yield of 60%.

Substance “PEPTIDE1{[Mca].[D-Tyr(Et)].F.Q.N.C.[Sar].R.G.[am]}$PEPTIDE1,PEPTIDE1,1:R3-6:R3$$$V2.0” gave an oxidative folding yield of 33%.

[Mca^1, D-Tyr^2, Sar^7 ]AVP returned an oxidative folding yield of 61%.

“Mca(Bzl)-DTyr(MeOBzl)-Phe-Gln-Asn-Cys(Bzl)-Sar-Arg(Tos)-Gly-NH2”: the crude mass is on record as 0.35 g and the crude yield worked out at 55%.
